The source gives many values for each of these; only a part stands here.
Columns and labels:
Experiment in all cases: concentration in plasma after dosing
Mouse [1] = settings: 0.5 h; dosed: 2-Hydroxy-4-methoxybenzophenone; 500 mg/kg; oral; Female; B6C3F1
Mouse [2] = settings: 16 h; dosed: 2-Hydroxy-4-methoxybenzophenone; 500 mg/kg; oral; Male; B6C3F1
Mouse [3] = settings: 0.5 h; dosed: 2-Hydroxy-4-methoxybenzophenone; 250 mg/kg; oral; Male; B6C3F1
Mouse [4] = settings: 6 h; dosed: 2-Hydroxy-4-methoxybenzophenone; 500 mg/kg; oral; Male; B6C3F1
Mouse [5] = settings: 6 h; dosed: 2-Hydroxy-4-methoxybenzophenone; 500 mg/kg; oral; Female; B6C3F1
Mouse [6] = settings: 1 h; dosed: 2-Hydroxy-4-methoxybenzophenone; 500 mg/kg; oral; Female; B6C3F1
Mouse [7] = settings: 8 h; dosed: 2-Hydroxy-4-methoxybenzophenone; 50 mg/kg; iv; Male; B6C3F1
Rat [8] = settings: dosed: 2-Hydroxy-4-methoxybenzophenone, 100 mg/kg, oral, Female, F344
Mouse [9] = settings: 6 h; dosed: 2-Hydroxy-4-methoxybenzophenone; 250 mg/kg; oral; Female; B6C3F1
Rat [10] = settings: dosed: 2-Hydroxy-4-methoxybenzophenone, 250 mg/kg, oral, Male, F344
Mouse [11] = settings: 8 h; dosed: 2-Hydroxy-4-methoxybenzophenone; 500 mg/kg; oral; Male; B6C3F1
Mouse [12] = settings: 1 h; dosed: 2-Hydroxy-4-methoxybenzophenone; 500 mg/kg; oral; Male; B6C3F1
Mouse [13] = settings: 5 min; dosed: 2-Hydroxy-4-methoxybenzophenone; 250 mg/kg; oral; Male; B6C3F1
Rat [14] = settings: dosed: 2-Hydroxy-4-methoxybenzophenone, 500 mg/kg, oral, Female, F344
Rat [15] = settings: dosed: 2-Hydroxy-4-methoxybenzophenone, 500 mg/kg, oral, Female, F344; remark: listed apart in the source
Mouse [16] = settings: 1.5 h; dosed: 2-Hydroxy-4-methoxybenzophenone; 50 mg/kg; iv; Male; B6C3F1
Mouse [17] = settings: 0.5 h; dosed: 2-Hydroxy-4-methoxybenzophenone; 500 mg/kg; oral; Male; B6C3F1
Rat [18] = settings: dosed: 2-Hydroxy-4-methoxybenzophenone, 100 mg/kg, oral, Female, F344; remark: listed apart in the source
Mouse [19] = settings: 4 h; dosed: 2-Hydroxy-4-methoxybenzophenone; 500 mg/kg; oral; Female; B6C3F1
Mouse [20] = settings: 5 min; dosed: 2-Hydroxy-4-methoxybenzophenone; 50 mg/kg; iv; Male; B6C3F1
Mouse [21] = settings: 0.5 h; dosed: 2-Hydroxy-4-methoxybenzophenone; 250 mg/kg; oral; Female; B6C3F1
Rat [22] = settings: dosed: 2-Hydroxy-4-methoxybenzophenone, 8 mg/kg, iv, Female, F344
Rat [23] = settings: dosed: 2-Hydroxy-4-methoxybenzophenone, 100 mg/kg, oral, Male, F344
Rat [24] = settings: dosed: 2-Hydroxy-4-methoxybenzophenone, 8 mg/kg, iv, Male, F344
Mouse [25] = settings: 5 min; dosed: 2-Hydroxy-4-methoxybenzophenone; 250 mg/kg; oral; Female; B6C3F1
Rat [26] = settings: dosed: 2-Hydroxy-4-methoxybenzophenone, 250 mg/kg, oral, Male, F344; remark: listed apart in the source
Rat [27] = settings: 16 h; dosed: 2-Hydroxy-4-methoxybenzophenone; 500 mg/kg; oral; Female; F344
Rat [28] = settings: dosed: Perfluorohexanoic Acid, 160 mg/kg, oral, Female, Harlan Sprague Dawley
Rat [29] = settings: dosed: Perfluorohexanoic Acid, 40 mg/kg, Male, F344
Rat [30] = settings: dosed: Perfluorohexanoic Acid, 40 mg/kg, Male, F344; remark: listed apart in the source
Rat [31] = settings: dosed: Perfluorohexanoic Acid, 160 mg/kg, oral, Male, Harlan Sprague Dawley
Rat [32] = settings: dosed: Perfluorohexanoic Acid, 160 mg/kg, oral, Female, Harlan Sprague Dawley; remark: listed apart in the source
Rat [33] = settings: dosed: Perfluorohexanoic Acid, 40 mg/kg, Male, F344; remark: listed apart in the source
Rat [34] = settings: dosed: Perfluorohexanoic Acid, 40 mg/kg, oral, Female, Harlan Sprague Dawley
Rat [35] = settings: 0.75 h; dosed: Perfluorohexanoic Acid; 80 mg/kg; oral; Female; Harlan Sprague Dawley

## O=C(c1ccccc1)c1ccc(O)cc1O [2,4-Dihydroxybenzophenone]
Mouse [1]
  concentration in plasma: 1830 ng/mL
Mouse [2]
  concentration in plasma: 131 ng/mL
Mouse [3]
  concentration in plasma: 1330 ng/mL
Mouse [4]
  concentration in plasma: 601 ng/mL
Mouse [5]
  concentration in plasma: 254 ng/mL
Mouse [6]
  concentration in plasma: 443 ng/mL
Mouse [7]
  concentration in plasma: 141 ng/mL
Rat [8]; 1.5 h
  concentration in plasma: 140 ng/mL
Rat [8]; 8 h
  concentration in plasma: 75.5 ng/mL
Mouse [9]
  concentration in plasma: 42 ng/mL
Rat [10]; 1.5 h
  concentration in plasma: 361 ng/mL
Rat [10]; 8 h
  concentration in plasma: 76.7 ng/mL
Mouse [11]
  concentration in plasma: 154 ng/mL
Mouse [12]
  concentration in plasma: 638 ng/mL
Mouse [13]
  concentration in plasma: 242 ng/mL

## COc1ccc(C(=O)c2ccccc2)c(O)c1 [2-Hydroxy-4-methoxybenzophenone]
Rat [14]; 0.5 h
  concentration in plasma: 413 ng/mL
Rat [14]; 12 h
  concentration in plasma: 22.4 ng/mL
Rat [15]; 0.5 h
  concentration in plasma: 380 ng/mL
Rat [15]; 12 h
  concentration in plasma: 20.2 ng/mL
Mouse [16]
  concentration in plasma: 559 ng/mL
Mouse [17]
  concentration in plasma: 479 ng/mL
Rat [18]; 1.5 h
  concentration in plasma: 33.9 ng/mL
Rat [18]; 8 h
  concentration in plasma: 6.7 ng/mL
Mouse [19]
  concentration in plasma: 193 ng/mL
Mouse [20]
  concentration in plasma: 28200 ng/mL
Mouse [21]
  concentration in plasma: 252 ng/mL
Rat [22]; 5 min
  concentration in plasma: 5680 ng/mL
Rat [22]; 10 h
  concentration in plasma: 11.9 ng/mL
Rat [23]; 5 min
  concentration in plasma: 47.4 ng/mL
Rat [23]; 0.5 h
  concentration in plasma: 419 ng/mL
Rat [23]; 1 h
  concentration in plasma: 152 ng/mL
Rat [23]; 1.5 h
  concentration in plasma: 93.7 ng/mL
Rat [23]; 2 h
  concentration in plasma: 24.6 ng/mL
Rat [23]; 5 h
  concentration in plasma: 16.2 ng/mL
Rat [23]; 6 h
  concentration in plasma: 11.1 ng/mL
Rat [23]; 8 h
  concentration in plasma: 11.9 ng/mL
Rat [24]; 1 h
  concentration in plasma: 219 ng/mL
Rat [24]; 6 h
  concentration in plasma: 24.6 ng/mL
Mouse [25]
  concentration in plasma: 66.5 ng/mL
Rat [26]; 1.5 h
  concentration in plasma: 316 ng/mL
Rat [26]; 8 h
  concentration in plasma: 22.9 ng/mL
Rat [27]
  concentration in plasma: 19.6 ng/mL

## O=C(O)C(F)(F)C(F)(F)C(F)(F)C(F)(F)C(F)(F)F [Perfluorohexanoic Acid]
Rat [28]; 1 h
  concentration in plasma: 158000 ng/mL
Rat [28]; 24 h
  concentration in plasma: 91.1 ng/mL
Rat [29]; 5 min
  concentration in plasma: 268000 ng/mL
Rat [29]; 3 h
  concentration in plasma: 19600 ng/mL
Rat [30]; 5 min
  concentration in plasma: 253000 ng/mL
Rat [30]; 3 h
  concentration in plasma: 736 ng/mL
Rat [31]; 0.25 h
  concentration in plasma: 142000 ng/mL
Rat [31]; 6 h
  concentration in plasma: 19800 ng/mL
Rat [32]; 0.75 h
  concentration in plasma: 135000 ng/mL
Rat [32]; 12 h
  concentration in plasma: 161 ng/mL
Rat [33]; 5 min
  concentration in plasma: 286000 ng/mL
Rat [33]; 3 h
  concentration in plasma: 19100 ng/mL
Rat [34]; 0.75 h
  concentration in plasma: 51700 ng/mL
Rat [34]; 12 h
  concentration in plasma: 102 ng/mL
Rat [35]
  concentration in plasma: 42400 ng/mL

Reference: EPA's CvTdb concentration-time database
